Test results reported in ChEMBL document CHEMBL4184340, “Fragment-Based Discovery of a Potent, Orally Bioavailable Inhibitor That Modulates the Phosphorylation and Catalytic Activity of ERK1/2” (J Med Chem, 2018).

How the values were obtained:
[1] = in vivo; details: Balb/c, mouse, iv, 0.5 mg/kg
[2] = in vivo; details: Balb/c, mouse, iv, 0.5 mg/kg; remark: listed apart in the source
[3] = in vivo; details: Balb/c, mouse, po, 5 mg/kg
[4] = in vivo; details: Balb/c, mouse, po, 5 mg/kg; remark: listed apart in the source
[5] = in vivo; details: Balb/c, mouse, po, 5 mg/kg; remark: listed apart in the source
[6] = in vitro; details: human, Caco-2

Structure (SMILES)	clearance at 24 h [1] [mL/min/kg]	Vd at 24 h [2] [L/kg]	AUC at 24 h [3] [ng·h/mL]	half-life at 24 h [4] [h]	bioavailability at 24 h [5] [%]	Papp at 1 h, 10 µM [6] [×10⁻⁶ cm/s]
COc1cccc([C@@H](CO)NC(=O)CN2Cc3ccc(-c4nc(NC5CCOCC5)ncc4Cl)cc3C2=O)c1	40	1	350	3	20	2.2
COc1cccc([C@@H](C)NC(=O)CN2Cc3ccc(-c4nc(NC5CCOCC5)ncc4Cl)cc3C2=O)c1	6	0.08	1100	2	8	15
